Measured data: PubChem BioAssay AID652259 (Drosophila RNAi Screening Center, 2013)
The screen tested about 22,000 reagents; shown is an unselected part of those with a known target gene and a result. In the full data, 233 (1.1%) got an active call. 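Light values are raw, unnormalised plate reads; the ratio scores behind the reporter calls were not deposited.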 A number with no mark means an inactive call. Not given: the amount of reagent, the time to read-out, the dose of the treatment.

Screen: 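Genome-wide hunt for genes that control Wingless pathway activity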 (primary screen)
System: Drosophila clone 8 imaginal disc epithelial cells
Reagents: long dsRNA against Drosophila genes
Treatment: pathway stimulated by co-transfected Wingless expression plasmid
Detection: 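Firefly luciferase from a tcf-site Wingless reporter, measured alongside co-transfected Renilla luciferase that tracks transfection; pathway stimulated by a Wingless plasmid; the firefly-to-Renilla ratio is not deposited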
Direction: firefly reporter light: higher = more Wg reporter light, before normalisation; Renilla control light: higher = more transfected or surviving cells
Hit rule: 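a knock-down is a candidate when at least two out of four statistical tests show it departing from its plate mean; one test alone signals a weak candidate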
Meaning of the calls: active = candidate regulator (raises or lowers reporter); inactive = not a candidate

The first 6 entries, to show the layout:
gene | DRSC id | reporter change call, replicate 1 | firefly reporter light, replicate 1 | firefly reporter light, replicate 2 | Renilla control light, replicate 1 | Renilla control light, replicate 2
CG9030 | DRSC20139 | – | 19546 | – | 9168 | –
CG14568 | DRSC11729 | – | 25072 | – | 7638 | –
fy (fuzzy) | DRSC03533 | – | 2427 | 5819 | 773 | 2439
CG30151 | DRSC05888 | – | 19489 | – | 13297 | –
MFS15 (Major Facilitator Superfamily Transporter 15) | DRSC06523 | – | 7189 | – | 2225 | –
lncRNA:CR9162 (long non-coding RNA:CR9162) | DRSC03151 | – | 16156 | – | 6753 | –

The list itself, from the start:
gene | DRSC id | reporter change call, replicate 1 | firefly reporter light, replicate 1 | firefly reporter light, replicate 2 | Renilla control light, replicate 1 | Renilla control light, replicate 2
CG9030 | DRSC20139 | – | 19546 | – | 9168 | –
CG14568 | DRSC11729 | – | 25072 | – | 7638 | –
fy (fuzzy) | DRSC03533 | – | 2427 | 5819 | 773 | 2439
CG30151 | DRSC05888 | – | 19489 | – | 13297 | –
MFS15 (Major Facilitator Superfamily Transporter 15) | DRSC06523 | – | 7189 | – | 2225 | –
lncRNA:CR9162 (long non-coding RNA:CR9162) | DRSC03151 | – | 16156 | – | 6753 | –
Liprin-beta | DRSC09795 | – | 5308 | – | 1558 | –
CG14075 | DRSC10080 | – | 11018 | – | 3093 | –
Top2 (Topoisomerase 2) | DRSC03459 | – | 2953 | 5740 | 1026 | 2299
CG10621 | DRSC02078 | – | 3280 | 3780 | 441 | 1739
CG12659 | DRSC17862 | – | 23290 | – | 10086 | –
ccb (central complex broad) | DRSC20501 | – | 15067 | – | 10790 | –
ZnT63C (Zinc transporter 63C) | DRSC08032 | – | 3579 | – | 1756 | –
ZnT63C (Zinc transporter 63C) | DRSC08033 | – | 3604 | – | 1573 | –
ZnT63C (Zinc transporter 63C) | DRSC08519 | – | 8785 | – | 4717 | –
ZnT63C (Zinc transporter 63C) | DRSC21989 | – | 5.52e5 | 5.63e5 | 1.34e5 | 1.27e5
CG31551 | DRSC12159 | – | 8837 | – | 3724 | –
CG31551 | DRSC22403 | – | 8.14e5 | 7.82e5 | 3.48e5 | 3.32e5
D19B | DRSC11134 | – | 2445 | 8423 | 980 | 2452
CG17110 | DRSC15173 | – | 25148 | – | 18854 | –
PGRP-SB2 (Peptidoglycan recognition protein SB2) | DRSC11092 | – | 6624 | – | 3337 | –
Tao | DRSC19573 | – | 5521 | 10064 | 1399 | 2892
Tao | DRSC19574 | – | 20939 | – | 11624 | –
Tao | DRSC22639 | – | 8.62e5 | 6.25e5 | 3.94e5 | 296
msl-3 (male-specific lethal 3) | DRSC11371 | – | 2208 | 9905 | 1428 | 2883
CG13436 | DRSC06396 | – | 3633 | – | 2611 | –
CG9541 | DRSC03257 | – | 2421 | 7619 | 876 | 3495
CG14861 | DRSC14984 | – | 9392 | – | 1936 | –
mRpL16 (mitochondrial ribosomal protein L16) | DRSC18550 | – | 4729 | 9116 | 2560 | 4279
Naa20A (N(alpha)-acetyltransferase 20 A) | DRSC19579 | – | 3616 | 4772 | 1161 | 1400
Poxm (Pox meso) | DRSC16793 | – | 19398 | – | 6208 | –
Poxm (Pox meso) | DRSC22839 | – | 6.66e5 | 6.43e5 | 2.79e5 | 3.37e5
CG8142 | DRSC20086 | – | 2464 | 7915 | 1088 | 3616
CG12112 | DRSC17809 | – | 3946 | 10636 | 1332 | 3661
polybromo | DRSC14307 | – | 1730 | 3552 | 1050 | 1250
fd19B (forkhead domain 19B) | DRSC20688 | – | 19409 | 6.72e5 | 14353 | 3.03e5
Surf1 (Surfeit 1) | DRSC11295 | – | 1192 | 7157 | 678 | 2608
Surf1 (Surfeit 1) | DRSC11394 | – | 7195 | – | 3607 | –
mmm (missing minor mitochondria) | DRSC10208 | – | 1525 | 6456 | 1451 | 2962
Vdup1 (Vitamin D[[3]] up-regulated protein 1) | DRSC08586 | – | 6138 | – | 2729 | –
Oscillin | DRSC03001 | – | 6197 | 5.75e5 | 2445 | 2.20e5
CG42449 | DRSC18084 | – | 20412 | – | 7282 | –
CG8492 | DRSC10984 | – | 2106 | 11233 | 1331 | 5282
CG8492 | DRSC21804 | – | 5.33e5 | 4.23e5 | 2.99e5 | 1.77e5
CG6912 | DRSC16132 | – | 15491 | – | 4390 | –
CG7231 | DRSC03034 | – | 1882 | 4732 | 615 | 2704
CG5892 | DRSC15910 | – | 39539 | – | 8464 | –
Ip259 (Intronic Protein 259) | DRSC03352 | – | 8514 | – | 1413 | –
Rpn13 (Regulatory particle non-ATPase 13) | DRSC06379 | – | 5616 | – | 1585 | –
CG3520 | DRSC04383 | – | 3382 | 6960 | 737 | 3060
dsx-c73A (doublesex cognate 73A) | DRSC09435 | – | 4128 | – | 1329 | –
dsx-c73A (doublesex cognate 73A) | DRSC09914 | – | 7924 | – | 2640 | –
dsx-c73A (doublesex cognate 73A) | DRSC10429 | – | 9354 | – | 3284 | –
to (takeout) | DRSC17086 | – | 21382 | – | 18597 | –
CG4325 | DRSC18516 | Wg reporter activity raised (active) | 21799 | – | 5100 | –
CG34202 | DRSC05907 | – | 15504 | – | 9616 | –
meigo (medial glomeruli) | DRSC15877 | – | 14453 | – | 4838 | –
jigr1 (jing interacting gene regulatory 1) | DRSC13724 | – | 4785 | – | 2224 | –
jigr1 (jing interacting gene regulatory 1) | DRSC15233 | – | 22038 | – | 21987 | –
jigr1 (jing interacting gene regulatory 1) | DRSC22617 | – | 6.60e5 | 5.88e5 | 2.49e5 | 1.01e5
LysS (Lysozyme S) | DRSC08677 | – | 2419 | – | 1738 | –
CG16779 | DRSC15153 | – | 10947 | – | 2023 | –
CG30371 | DRSC06835 | – | 1744 | 6585 | 550 | 2491
lectin-46Cb | DRSC06611 | – | 3920 | 12272 | 1724 | 5117
CCDC151 (Coiled-coil domain containing protein 151) | DRSC10131 | – | 7092 | – | 2689 | –
Gcn2 | DRSC16678 | – | 3478 | 3942 | 1367 | 1441
vers (versatile) | DRSC10715 | – | 2244 | – | 1036 | –
scro (scarecrow) | DRSC17099 | – | 3624 | – | 936 | –
scro (scarecrow) | DRSC17102 | – | 23904 | – | 21200 | –
Ir62a (Ionotropic receptor 62a) | DRSC08250 | – | 4957 | – | 2324 | –
Shark (SH2 ankyrin repeat kinase) | DRSC07680 | – | 12154 | – | 3849 | –
lncRNA:bxd (bithoraxoid) | DRSC13176 | – | 4760 | – | 2023 | –
CG7536 | DRSC20050 | – | 2979 | 9516 | 1149 | 3096
